Values from PubChem BioAssay AID504791 (Drosophila RNAi Screening Center, 2011).

Test: 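Genes whose knock-down strengthens or weakens small-RNA reporter silencing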 (primary screen)
System: Drosophila S2-derived reporter cells
Knock-down reagent: long dsRNA against Drosophila genes, about 150-250 ng dsRNA per well (siRNA assay); about 80-120 ng (miRNA assay)
Duration: about 5 days (siRNA assay); about 4 days (miRNA assay)
Conditions: copper sulfate induction of reporters: 25 µM (siRNA assay); 200 mM stated (miRNA assay), 1-2 days before reading
Measurement: 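Dual luciferase assay: Renilla to firefly signal ratio in each well, scaled to the mean ratio of its plate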
Scale: siRNA reporter hit score: higher = 3 marks a strong hit with raised ratio; -3 a strong hit with lowered ratio
Active means: 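First-pass picks had plate-scaled ratios over 1.5 for the siRNA assay, over 1.6 for the miRNA assay, or under 0.6; two distinct dsRNAs had to score alike on retest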
The screen tested about 23,000 reagents; this is a random part of those that have a named target and a result. Over the whole deposit, 199 (0.86%) are marked active. 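Plate-scaled ratios behind the calls are not deposited; printed light signals are raw; many rows marked increased or decreased are still called inactive.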 A number with no mark means an inactive call. Names joined by + are all predicted targets of the reagent.

| target gene | DRSC id | siRNA reporter hit score | miRNA reporter change | stable assay Renilla, run 1 (luminescence) | stable assay firefly, run 1 (luminescence) |
| --- | --- | --- | --- | --- | --- |
| Syx8 (GeneID 39847) | DRSC10402 | – | – | 5083 | 4.88e5 |
| Syx8 (GeneID 39847) | DRSC22498 | – | – | 4956 | 3.65e5 |
| Eip93F (GeneID 44936) | DRSC13527 | – | – | 4524 | 4.74e5 |
| Eip93F (GeneID 44936) | DRSC16661 | – | – | 5135 | 1.66e5 |
| Eip93F (GeneID 44936) | DRSC21754 | – | – | 8631 | 4.12e5 |
| Eip93F (GeneID 44936) | DRSC23072 | – | – | 5438 | 4.16e5 |
| unc-4 (GeneID 32757) | DRSC20381 | – | – | 5514 | 3.98e5 |
| unc-4 (GeneID 32757) | DRSC22074 | – | – | 9549 | 6.99e5 |
| U2af50 (GeneID 32602) | DRSC20297 | – | – | 11607 | 9.02e5 |
| U2af50 (GeneID 32602) | DRSC22867 | – | – | 6675 | 5.87e5 |
| Lgr3 (GeneID 43098) | DRSC15704 | – | – | 6447 | 3.49e5 |
| Lgr3 (GeneID 43098) | DRSC15706 | – | – | 8557 | 4.11e5 |
| Rfx (GeneID 41266) | DRSC16820 | – | – | 7330 | 4.66e5 |
| RpL36 (GeneID 31009) | DRSC18708 | – | – | 7387 | 3.87e5 |
| CG13073 (GeneID 39773) | DRSC09956 | – | reporter ratio lowered past the hit cutoff | 7722 | 5.10e5 |
| repo (GeneID 47285) | DRSC16369 | – | – | 6675 | 2.22e5 |
| repo (GeneID 47285) | DRSC23108 | – | – | 3275 | 2.97e5 |
| Mst87F (GeneID 41693) | DRSC16747 | – | – | 6830 | 3.70e5 |
| CG8149 (GeneID 41137) | DRSC16391 | – | – | 5783 | 3.63e5 |
| CalpB (GeneID 39165) | DRSC11109 | – | – | 8795 | 4.93e5 |
| Osi9 (GeneID 40763) | DRSC12278 | – | – | 4972 | 4.58e5 |
| InR (GeneID 42549) | DRSC16717 | – | – | 8566 | 4.30e5 |
| CG8272 (GeneID 35875) | DRSC07134 | – | – | 7070 | 4.25e5 |
| CG3803 (GeneID 37809) | DRSC04420 | – | – | 6284 | 3.24e5 |
| CG17739 (GeneID 36333) | DRSC06689 | – | – | 9079 | 5.20e5 |
| Drl-2 (GeneID 36436) | DRSC05393 | – | – | 5670 | 3.85e5 |
| Drl-2 (GeneID 36436) | DRSC06155 | – | – | 6472 | 5.50e5 |
| Drl-2 (GeneID 36436) | DRSC06858 | – | reporter ratio lowered past the hit cutoff | 5528 | 4.15e5 |
| Patj (GeneID 44100) | DRSC08712 | – | – | 9074 | 3.51e5 |
| obst-J (GeneID 40202) | DRSC10821 | – | – | 8066 | 4.59e5 |
| LBR (GeneID 37482) | DRSC04298 | – | – | 13409 | 1.42e6 |
| CG34174 (GeneID 5740699) | DRSC00101 | – | – | 3963 | 3.72e5 |
| eas (GeneID 32585) | DRSC20329 | – | – | 4827 | 3.54e5 |
| Npc2e (GeneID 326136) | DRSC15522 | – | – | 6163 | 3.40e5 |
| Npc2e (GeneID 326136) | DRSC22338 | – | – | 8719 | 5.65e5 |
| CG2162 (GeneID 38360) | DRSC08557 | – | – | 8845 | 3.74e5 |
| CG9928 (GeneID 34704) | DRSC03274 | – | – | 6944 | 2.79e5 |
| Alp13 (GeneID 41236) | DRSC15781 | – | – | 6300 | 4.16e5 |
| TrpA1 (GeneID 39015) | DRSC10544 | – | – | 5739 | 3.42e5 |

A few values from above.
Value of Eip93F (GeneID 44936) [DRSC16661] in “stable assay Renilla, run 1 (luminescence)”: 5135
Under “stable assay firefly, run 1 (luminescence)”, eas (GeneID 32585) [DRSC20329] has 3.54e5
repo (GeneID 47285) [DRSC23108], stable assay firefly, run 1 (luminescence) → 2.97e5
Result for CG8272 (GeneID 35875) [DRSC07134] in “stable assay firefly, run 1 (luminescence)”: 4.25e5

The list goes on:
| target gene | DRSC id | siRNA reporter hit score | miRNA reporter change | stable assay Renilla, run 1 (luminescence) | stable assay firefly, run 1 (luminescence) |
| --- | --- | --- | --- | --- | --- |
| mas (GeneID 38499) | DRSC08720 | – | – | 7689 | 4.57e5 |
| Oat (GeneID 40145) | DRSC11043 | – | – | 10813 | 5.77e5 |
| CG32603 (GeneID 318109) | DRSC19409 | – | – | 5536 | 4.71e5 |
| CG32603 (GeneID 318109) | DRSC21586 | – | – | 8441 | 5.04e5 |
| Qsox4 (GeneID 318720) | DRSC14224 | – | – | 9217 | 3.52e5 |
| IntS4 (GeneID 31793) | DRSC17810 | -3 | – | 17543 | 1.11e6 |
| Gr93d (GeneID 117470) | DRSC21941 | – | – | 8789 | 5.42e5 |
| CG8578 (GeneID 32540) | DRSC20114 | – | – | 7164 | 4.57e5 |
| Klp3A (GeneID 31240) | DRSC18676 | – | – | 7574 | 4.80e5 |
| Klp3A (GeneID 31240) | DRSC21625 | – | – | 8336 | 3.69e5 |
| CG14907 + Mettl4 | DRSC15026 | – | – | 6822 | 3.86e5 |
| CG14907 + Mettl4 | DRSC15027 | – | – | 7856 | 3.41e5 |
| ms(2)35Ci (GeneID 49529) | DRSC01460 | – | – | 5654 | 3.69e5 |
| Enoph (GeneID 40630) | DRSC12201 | – | – | 7078 | 5.57e5 |
| RhoGEF3 (retired record) (GeneID 38051) | DRSC08266 | – | – | 5434 | 5.28e5 |
| RhoGEF3 (retired record) (GeneID 38051) | DRSC08353 | – | – | 7006 | 4.00e5 |
| aay (GeneID 39085) | DRSC11320 | – | – | 7539 | 4.39e5 |
| Ugt49C1 (GeneID 37421) | DRSC04252 | – | – | 6719 | 4.72e5 |
| nclb (GeneID 36150) | DRSC07009 | – | – | 8150 | 4.03e5 |
| CG31551 (GeneID 318795) | DRSC12159 | – | – | 4867 | 3.27e5 |
| CG31551 (GeneID 318795) | DRSC22403 | – | – | 3812 | 3.90e5 |
| asRNA:Eig63F-2 + Eip63F-1 | DRSC21446 | – | – | 9274 | 4.12e5 |
| neb (GeneID 35293) | DRSC03577 | – | – | 8067 | 2.18e6 |
| CG14442 (GeneID 31609) | DRSC17935 | – | – | 7200 | 2.93e5 |
| COX1 (retired record) (GeneID 192469) | DRSC21275 | – | – | 5536 | 3.34e5 |
| djl (GeneID 40839) | DRSC12578 | – | – | 7028 | 3.90e5 |
| Jhbp1 (GeneID 40613) | DRSC12167 | – | – | 7706 | 4.16e5 |
| CG15048 (retired record) (GeneID 32842) | DRSC19624 | – | – | 5403 | 4.02e5 |
| Mal-A8 (GeneID 35830) | DRSC07234 | – | – | 7973 | 5.47e5 |
| SIDL (GeneID 41833) | DRSC16077 | – | – | 8464 | 3.27e5 |
| Hil (GeneID 37328) | DRSC05989 | – | – | 11023 | 4.51e5 |
| Hil (GeneID 37328) | DRSC06395 | – | – | 5367 | 4.08e5 |
| CG13949 (GeneID 33266) | DRSC00367 | – | – | 3279 | 3.26e5 |
| fne (GeneID 32245) | DRSC20332 | – | – | 4551 | 4.84e5 |
| fne (GeneID 32245) | DRSC22418 | – | – | 5168 | 6.48e5 |
| CG15256 (GeneID 34911) | DRSC01940 | – | – | 8566 | 5.05e5 |
| Fit1 (GeneID 38488) | DRSC08450 | – | – | 8043 | 4.13e5 |
| CG4701 (GeneID 34858) | DRSC01952 | – | – | 6374 | 3.51e5 |
| CG31668 (GeneID 33395) | DRSC22584 | – | – | 4779 | 4.23e5 |
| Mgat2 (GeneID 43563) | DRSC16347 | – | – | 8637 | 4.27e5 |
| CG15014 (GeneID 38533) | DRSC08468 | – | – | 6591 | 5.54e5 |
| Gel (GeneID 46008) | DRSC12350 | – | – | 8625 | 3.78e5 |
| CG1785 (GeneID 31810) | DRSC18139 | – | – | 8538 | 4.81e5 |
| CG17472 (GeneID 35320) | DRSC02622 | – | – | 7921 | 5.67e5 |
